# Laboratory results: PMC12140386, “Diallyl Trisulfide From Garlic Regulates RAB18 Phase Separation to Inhibit Lipophagy and Induce Cuproptosis in Hepatic Stellate Cells for Antifibrotic Effects” (Advanced Science, 2025)
# Chains of the proteins cited; added tags and fusions are not shown.
# UniProt Q9NP72: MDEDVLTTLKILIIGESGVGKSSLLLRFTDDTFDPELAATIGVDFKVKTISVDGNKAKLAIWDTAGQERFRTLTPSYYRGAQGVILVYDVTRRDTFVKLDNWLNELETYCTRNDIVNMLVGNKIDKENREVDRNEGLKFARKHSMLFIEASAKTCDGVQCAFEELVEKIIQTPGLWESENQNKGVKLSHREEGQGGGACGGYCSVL
# These are yes or no findings as the source states them, for the method shown. In cells and extracts the contact can be indirect. These calls come from enrichment with a bait or labelling near it, and not all partners need be listed.
# Target: T1, Carnitine palmitoyltransferase 1A (CPT1A) (human (endogenous in LX2)) (UniProt P50416)
# T1 sequence: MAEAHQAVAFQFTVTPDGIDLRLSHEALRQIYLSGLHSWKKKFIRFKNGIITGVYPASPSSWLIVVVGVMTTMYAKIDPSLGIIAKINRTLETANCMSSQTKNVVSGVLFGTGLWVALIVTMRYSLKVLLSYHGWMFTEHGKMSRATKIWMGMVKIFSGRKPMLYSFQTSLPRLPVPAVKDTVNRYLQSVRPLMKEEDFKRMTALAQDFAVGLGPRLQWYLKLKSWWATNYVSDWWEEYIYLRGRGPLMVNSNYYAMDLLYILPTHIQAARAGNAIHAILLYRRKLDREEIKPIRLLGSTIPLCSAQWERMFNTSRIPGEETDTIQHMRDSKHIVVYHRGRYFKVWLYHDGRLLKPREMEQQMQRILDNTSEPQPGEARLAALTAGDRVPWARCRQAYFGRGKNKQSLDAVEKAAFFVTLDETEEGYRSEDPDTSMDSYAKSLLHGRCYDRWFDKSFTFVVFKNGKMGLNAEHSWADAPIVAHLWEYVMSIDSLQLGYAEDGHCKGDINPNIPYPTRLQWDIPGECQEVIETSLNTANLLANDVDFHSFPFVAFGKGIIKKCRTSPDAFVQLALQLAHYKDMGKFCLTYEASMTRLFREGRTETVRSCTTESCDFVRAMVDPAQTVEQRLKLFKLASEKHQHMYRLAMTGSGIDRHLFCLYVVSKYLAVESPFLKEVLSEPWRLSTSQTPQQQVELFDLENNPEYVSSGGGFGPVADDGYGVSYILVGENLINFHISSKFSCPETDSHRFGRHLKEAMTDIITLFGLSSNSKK
# Assay: affinity purification with mass spectrometry; Co-IP-MS of CPT1A from LX2 cells treated with DATs (10 µM); control IgG or target antibody, Protein G beads, gel bands digested with trypsin, LC-MS/MS
substance,measurement,value
Ras‐related protein Rab‐18 (RAB18) (from UniProt Q9NP72 1-206),binding,binds
